Experimental data from PubChem BioAssay AID248 (DTP/NCI, 2004).
The list does not hold the whole screen: it gathers tests that were run many times, whatever their T/C, doses with no T/C, and many T/C values between a quarter and a half above the control. Further doses and runs are listed elsewhere. T/C is the treated group as % of the vehicle group. Some entries give survivors of the animals treated and no T/C: the source holds a T/C of zero for them, seemingly a mark for toxic or unscored doses. Some survivor counts are full or nearly so, which does not show that the dose was tolerated: the source hardly ever lists a survival T/C far under the control, and the zero likely stands for such cases as well. Counts of survivors are from the toxicity check (mostly the fifth day) where no day follows; animals may have died later. Schedules are NCI's codes, read here as Q, the interval in days (D) or hours (H), X, the number of doses. Some schedule codes hold Z or #, which are not explained here. Some entries were tested several times; the results are listed from low to high. For survival time, the PubChem record calls one and a half times the control and up active, and a quarter to a half above the control has no call in these data; cut-offs in other NCI protocols can differ. Some T/C values carry the count of animals alive at the toxicity check (mostly the fifth day); without a count, all were alive then.

Test system: L1210 leukemia ip in BDF1 mice, survival T/C
Test: NCI In Vivo Anticancer Drug Screen. Data for tumor model L1210 Leukemia (intraperitoneal) in B6D2F1 (BDF1) mice
Conditions: T/C endpoint: mean survival time, higher T/C = longer survival
[1] = dose: 400.0 mg/kg/injection, schedule: Q01DX009 (ip), vehicle: Klucel (hydroxypropylcellulose) (HPC)
[2] = dose: 200.0 mg/kg/injection, schedule: Q01DX009 (ip), vehicle: Klucel (hydroxypropylcellulose) (HPC)
[3] = dose: 150.0 mg/kg/injection, schedule: Q01DX001 (ip), vehicle: saline
[4] = dose: 300.0 mg/kg/injection, schedule: Q01DX001 (ip), vehicle: saline
[5] = dose: 100.0 mg/kg/injection, schedule: Q01DX009 (ip), vehicle: saline
[6] = dose: 200.0 mg/kg/injection, schedule: Q04DX003 (ip), vehicle: saline
[7] = dose: 400.0 mg/kg/injection, schedule: Q04DX003 (ip), vehicle: saline
[8] = dose: 200.0 mg/kg/injection, schedule: Q04DX002 (ip), vehicle: saline
[9] = dose: 400.0 mg/kg/injection, schedule: Q04DX002 (ip), vehicle: saline
[10] = dose: 200.0 mg/kg/injection, schedule: Q01DX009 (ip), vehicle: saline
[11] = dose: 400.0 mg/kg/injection, schedule: Q01DX009 (ip), vehicle: saline
[12] = dose: 200.0 mg/kg/injection, schedule: Q01DX009 (ip), vehicle: saline with Tween-80
[13] = dose: 100.0 mg/kg/injection, schedule: Q01DX009 (ip), vehicle: saline with Tween-80
[14] = dose: 400.0 mg/kg/injection, schedule: Q01DX009 (ip), vehicle: saline with Tween-80
[15] = dose: 100.0 mg/kg/injection, schedule: Q04DX002 (ip), vehicle: Klucel (hydroxypropylcellulose) (HPC)
[16] = dose: 200.0 mg/kg/injection, schedule: Q04DX002 (ip), vehicle: Klucel (hydroxypropylcellulose) (HPC)
[17] = dose: 400.0 mg/kg/injection, schedule: Q04DX002 (ip), vehicle: Klucel (hydroxypropylcellulose) (HPC)
[18] = dose: 100.0 mg/kg/injection, schedule: Q04DX002 (ip), vehicle: saline

SMILES: O=C(NC(=S)Nc1ccccc1C(=O)O)c1ccccc1
- T/C (dose: 100.0 mg/kg/injection, schedule: Q01DX009 (ip), vehicle: saline sonified): 131 % of control [5 of 6 alive]
- survivor count (dose: 400.0 mg/kg/injection, schedule: Q04DX003 (ip), vehicle: saline sonified): 1 of 6

SMILES: CCCCSc1ncc(C)c(N(C)C)n1
- survivor count (dose: 100.0 mg/kg/injection, schedule: Q01DX Z (ip), vehicle: methylcellulose (MC)): 5 of 6
- survivor count (dose: 200.0 mg/kg/injection, schedule: Q01DX Z (ip), vehicle: methylcellulose (MC)): 0 of 6

SMILES: C=CS(=O)(=O)c1ccc(N)cc1
- survivor count [1]: 0 of 6

SMILES: CC1CC(NCCO)CC(C)(C)C1 (stereo not given)
- survivor count (dose: 300.0 mg/kg/injection, schedule: Q01DX001 (ip), vehicle: acid diluted with saline): 0 of 6

SMILES: C[N+](C)(C)c1ccc(/C=N\NC(=O)c2ccccc2)cc1
- survivor count (dose: 100.0 mg/kg/injection, schedule: Q01DX009 (ip), vehicle: Klucel (hydroxypropylcellulose) (HPC)): 2 of 6
- survivor count [2]: 0 of 6
- survivor count [1]: 0 of 6

SMILES: CCCCCCCCCCCCCCCC[n+]1ccc(C#N)cc1
- survivor count (dose: 20.0 mg/kg/injection, schedule: Q01DX001 (ip), vehicle: saline): 6 of 6
- survivor count (dose: 40.0 mg/kg/injection, schedule: Q01DX001 (ip), vehicle: saline): 4 of 6
- survivor count (dose: 75.0 mg/kg/injection, schedule: Q01DX001 (ip), vehicle: saline): 1 of 6
- survivor count [3]: 0 of 6
- survivor count [4]: 0 of 6

SMILES: CC1=CC(C)(C)NC(=S)N1C
- survivor count (dose: 112.0 mg/kg/injection, schedule: Q01DX Z (ip), vehicle: methylcellulose (MC)): 6 of 6
- survivor count (dose: 250.0 mg/kg/injection, schedule: Q01DX Z (ip), vehicle: methylcellulose (MC)): 5 of 6
- survivor count (dose: 375.0 mg/kg/injection, schedule: Q01DX Z (ip), vehicle: methylcellulose (MC)): 1 of 6

SMILES: Nc1ccc(CC2=C(Br)CNC(=O)N2)cc1
- survivor count (dose: 400.0 mg/kg/injection, schedule: Q01DX001 (ip), vehicle: Klucel (hydroxypropylcellulose) (HPC)): 0 of 6

SMILES: CCN(CC)CCOc1ccccc1Br
- survivor count [5]: 3 of 6
- survivor count [6]: 2 of 6
- survivor count [7]: 0 of 6

SMILES: NC(CS)=NCCc1nc2ccccc2[nH]1
- survivor count [8]: 0 of 3
- survivor count [9]: 1 of 3

SMILES: CNCCC=C1c2ccccc2CCc2ccccc21
- survivor count [5]: 2 of 6
- survivor count (dose: 100.0 mg/kg/injection, schedule: Q04DX003 (ip), vehicle: saline): 1 of 4
- survivor count [10]: 0 of 6
- survivor count [6]: 0 of 4
- survivor count [11]: 0 of 6
- survivor count [7]: 1 of 4

SMILES: Cc1ccccc1NC(=O)NCCBr
- survivor count [12]: 3 of 3

SMILES: c1ccc2c(c1)CNC2
- survivor count [5]: 6 of 6

SMILES: COc1cc2c(cc1OC)C13CCN4C=C5CCOC6CC(=O)N2C1C6C5CC43 (stereo not given)
- survivor count (dose: 150.0 mg/kg/injection, schedule: Q01DX001 (ip), vehicle: other): 0 of 6
- survivor count (dose: 300.0 mg/kg/injection, schedule: Q01DX001 (ip), vehicle: other): 0 of 6

SMILES: OC(C#Cc1ccccc1)c1ccccc1 (stereo not given)
- survivor count [13]: 3 of 6
- survivor count (dose: 400.0 mg/kg/injection, schedule: Q04DX003 (ip), vehicle: saline with Tween-80): 2 of 6

SMILES: O=[N+]([O-])c1ccc(SSC(Cl)(Cl)Cl)cc1
- survivor count [13]: 3 of 6
- survivor count [12]: 0 of 6
- survivor count [14]: 0 of 6

SMILES: Cc1csc(C)n1.Cc1csc(C)n1.Cc1csc(C)n1.Cc1csc(C)n1.[Cl][Rh][Cl]
- survivor count (dose: 50.0 mg/kg/injection, schedule: Q04DX003 (ip), vehicle: distilled water + Tween-80): 0 of 6
- survivor count (dose: 100.0 mg/kg/injection, schedule: Q04DX003 (ip), vehicle: distilled water + Tween-80): 0 of 6
- survivor count (dose: 200.0 mg/kg/injection, schedule: Q04DX003 (ip), vehicle: distilled water + Tween-80): 0 of 6

SMILES: Cc1csc[n+]1C1CCCCC1
- survivor count [3]: 0 of 6
- survivor count [4]: 0 of 6

SMILES: CCOC(OCC)C(=O)OCC(=O)[C@]1(O)Cc2c(O)c3c(c(O)c2[C@@H](OC2CC(N)C(O)C(C)O2)C1)C(=O)c1c(OC)cccc1C3=O (stereo not given in full)
- T/C (dose: 0.5 mg/kg/injection, schedule: Q01DX009 (ip), vehicle: saline): 133 % of control
- T/C (dose: 1.0 mg/kg/injection, schedule: Q01DX009 (ip), vehicle: saline): 143 % of control
- survivor count (dose: 8.0 mg/kg/injection, schedule: Q01DX009 (ip), vehicle: saline): 10 of 10

SMILES: O=C(C[n+]1ccccc1)c1ccccc1
- survivor count [8]: 1 of 3
- survivor count [9]: 0 of 3

SMILES: CCCCCCCCCN1CCCC(C)C1 (stereo not given)
- survivor count [15]: 0 of 3
- survivor count [16]: 0 of 3
- survivor count [17]: 0 of 3

SMILES: [C-]#[N+]C(=C\c1ccc(O)cc1)/C(=C/c1ccc(O)cc1)[N+]#[C-]
- survivor count [15]: 0 of 3
- survivor count [16]: 3 of 3
- survivor count [17]: 0 of 3

SMILES: CCCCCCCCCC(=O)N(CC)CC
- survivor count [18]: 3 of 3

SMILES: CC(Cl)(Cl)[N+](=O)[O-]
- survivor count [14]: 2 of 6

SMILES: Nc1nc(-c2ccccc2)c(CCCOc2ccc([N+](=O)[O-])cc2)c(=O)[nH]1
- survivor count (dose: 200.0 mg/kg/injection, schedule: Q01DX001 (ip), vehicle: carboxymethylcellulose (CMC)): 4 of 4

SMILES: C[N+]1(CC(=O)c2ccc(CCc3ccc(C(=O)C[N+]4(C)CCCCC4)cc3)cc2)CCCCC1
- survivor count (dose: 3.12 mg/kg/injection, schedule: Q01DX009 (ip), vehicle: Klucel (hydroxypropylcellulose) (HPC)): 6 of 6
- survivor count (dose: 4.6 mg/kg/injection, schedule: Q01DX009 (ip), vehicle: Klucel (hydroxypropylcellulose) (HPC)): 3 of 6
- survivor count (dose: 6.25 mg/kg/injection, schedule: Q04DX002 (ip), vehicle: saline): 2 of 3
- survivor count (dose: 7.0 mg/kg/injection, schedule: Q01DX009 (ip), vehicle: Klucel (hydroxypropylcellulose) (HPC)): 1 of 6
- survivor count (dose: 10.0 mg/kg/injection, schedule: Q01DX009 (ip), vehicle: Klucel (hydroxypropylcellulose) (HPC)): 0 of 6
- survivor count (dose: 12.5 mg/kg/injection, schedule: Q04DX002 (ip), vehicle: saline): 0 of 3 and 1 of 3
- survivor count (dose: 25.0 mg/kg/injection, schedule: Q04DX002 (ip), vehicle: saline): 0 of 3
- survivor count (dose: 50.0 mg/kg/injection, schedule: Q04DX002 (ip), vehicle: saline): 0 of 3
- survivor count [18]: 0 of 3
- survivor count [8]: 0 of 3
- survivor count [9]: 0 of 3

SMILES: CC1(O)C=CCC1 (stereo not given)
- survivor count (dose: 300.0 mg/kg/injection, schedule: Q01DX001 (ip), vehicle: carboxymethylcellulose (CMC)): 2 of 6

SMILES: COC1OC2COc3ccccc3OC2C(NC#N)C1OC (stereo not given)
- survivor count [2]: 3 of 6
- survivor count [1]: 0 of 6

SMILES: O=C(CCl)Nc1cc(Cl)ccc1N1CCCC1
- survivor count [5]: 5 of 6
- survivor count [10]: 0 of 6
- survivor count [11]: 0 of 6

SMILES: O/N=C/c1cnccn1
- survivor count (dose: 400.0 mg/kg/injection, schedule: Q01DX001 (ip), vehicle: saline): 2 of 4
